Experiment: Serum T3, free T3 and T4 levels in hypothyroid (thyroidectomized) rats after T3 infusion or bolus injection (radioimmunoassay)
Format: in vivo, rat
Source text: FIG. 2. […] Three rats per each group.
Methods and Materials—Animal Studies. […] Results are expressed as means ±SE.

For `N[C@@H](Cc1cc(I)c(Oc2ccc(O)c(I)c2)c(I)c1)C(=O)O` [T3, triiodothyronine], the T4 (T3 infusion 0.25 μg/d, 3 days) was 1.2 ± 0.2 µg/dL, the T4 (T3 infusion 0.8 μg/d, 3 days) was 1.2 ± 0.2 µg/dL and the T4 (T3 infusion 1.0 μg/d, 1 week) was 1.2 ± 0.2 µg/dL. The T4 (T3 infusion 7.0 μg/d, 1 week) was 0.45 ± 0.1 µg/dL.
